Source: PubChem BioAssay AID1224826 (NIAID, 2016)

Aim: 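Regulators of Tlr4 signalling leading to Tnf-alpha expression in macrophages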 (primary screen)
System: RAW264.7 G9 macrophages from mouse bearing reporters for p65 (GFP) and the Tnf promoter (mCherry)
Reagent: siRNA pool against mouse genes, 100 nM
Duration: 16 h of LPS stimulation, after 2 days of siRNA transfection
Treatment: bacterial lipopolysaccharide (Salmonella minnesota R595), 10 ng/ml
Read-out: 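Nuclear mCherry signal of the Tnf promoter reporter measured by imaging after background removal, scaled to each plate median and turned into robust z-scores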
Direction: Tnf reporter robust z-score: higher = stronger Tnf promoter reporter signal after LPS
Rule for the call: 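a well counts as active at a score of -1.3 or below (Tlr4 knock-down control median) or above 3 (raised signal); controls and wells holding fewer than 50 cells are excluded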
Calls: active = Tnf reporter clearly lowered or raised; inactive = no clear change in Tnf reporter
The whole screen tested about 17,000 reagents; this is an unselected part. In the full data, about 1,110 (6.6%) got an active call. 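Active means lowered or raised reporter signal; replicate intensities are raw and not normalised per plate.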 Further read-outs or replicates are left out here.

Ints2 scored Tnf reporter robust z-score -0.46; fewer than 50 cells in well enough cells in well; inactive.
After knock-down of Elf3, the record shows Tnf reporter robust z-score -0.5; fewer than 50 cells in well enough cells in well; inactive.
Or2ag16 scored Tnf reporter robust z-score 0.94; fewer than 50 cells in well enough cells in well; inactive.
Gabra1 scored Tnf reporter robust z-score 1.14; fewer than 50 cells in well enough cells in well; inactive.
Against Slco4c1 the deposit lists fewer than 50 cells in well fewer than 50 cells per well; well left out of calls; inactive.
Knock-down of Suco resulted in: Tnf reporter robust z-score 1.34; fewer than 50 cells in well enough cells in well; inactive.
Pvalb scored Tnf reporter robust z-score -0.98; fewer than 50 cells in well enough cells in well; inactive.
Ndrg2 scored Tnf reporter robust z-score 0.73; fewer than 50 cells in well enough cells in well; inactive.
Against Rfx4, the values are Tnf reporter robust z-score 0.33; fewer than 50 cells in well enough cells in well; inactive.
Against Pxt1 the deposit lists Tnf reporter robust z-score 1.77; fewer than 50 cells in well enough cells in well; inactive.
After knock-down of Ppp1r8, the record shows fewer than 50 cells in well fewer than 50 cells per well; well left out of calls; inactive.
Smim7 scored Tnf reporter robust z-score 0.36; fewer than 50 cells in well enough cells in well; inactive.
Silencing of Mipol1 came out at: Tnf reporter robust z-score -0.1; fewer than 50 cells in well enough cells in well; inactive.
Knock-down of Ssc5d resulted in: Tnf reporter robust z-score 1.1; fewer than 50 cells in well enough cells in well; inactive.

In a second layout: entries from further up.
Pxt1
- Tnf reporter robust z-score: 1.77
- fewer than 50 cells in well: enough cells in well
- Call: inactive

Ppp1r8
- fewer than 50 cells in well: fewer than 50 cells per well; well left out of calls
- Call: inactive

Smim7
- Tnf reporter robust z-score: 0.36
- fewer than 50 cells in well: enough cells in well
- Call: inactive

The listing continues.
Knock-down of Atp13a5 resulted in: Tnf reporter robust z-score 2.16; fewer than 50 cells in well enough cells in well; inactive.
For Thy1 the deposit lists Tnf reporter robust z-score 0.23; fewer than 50 cells in well enough cells in well; inactive.
H2-T10 showed Tnf reporter robust z-score 0.75; fewer than 50 cells in well enough cells in well; inactive.
For Arf4, the entry reads Tnf reporter robust z-score -1.04; fewer than 50 cells in well enough cells in well; inactive.
Against Zdhhc12, the values are fewer than 50 cells in well fewer than 50 cells per well; well left out of calls; inactive.
Silencing of Or5p64 resulted in: fewer than 50 cells in well fewer than 50 cells per well; well left out of calls; inactive.
Silencing of Ggps1 gave: Tnf reporter robust z-score 0.32; fewer than 50 cells in well enough cells in well; inactive.
